Results from PubChem BioAssay AID720504 (National Center for Advancing Translational Sciences (NCATS), 2013).
In all, about 360,000 compounds went through this assay and about 10,000 (2.8%) were called active. The shares of active, inactive and inconclusive entries below differ from those in the screen. The call rests on the fitted dose curve; in most records, active means well fitted inhibition curve with a large enough effect; inconclusive means small, poorly fitted or top-dose-only effect; inactive means flat fitted curve, though single readings scatter. Potencies beside an inconclusive call are fits to weak or partial responses and may not hold up.

Chains of the proteins cited; added tags and fusions are not shown.
UniProt P53350, whole entry, looked up: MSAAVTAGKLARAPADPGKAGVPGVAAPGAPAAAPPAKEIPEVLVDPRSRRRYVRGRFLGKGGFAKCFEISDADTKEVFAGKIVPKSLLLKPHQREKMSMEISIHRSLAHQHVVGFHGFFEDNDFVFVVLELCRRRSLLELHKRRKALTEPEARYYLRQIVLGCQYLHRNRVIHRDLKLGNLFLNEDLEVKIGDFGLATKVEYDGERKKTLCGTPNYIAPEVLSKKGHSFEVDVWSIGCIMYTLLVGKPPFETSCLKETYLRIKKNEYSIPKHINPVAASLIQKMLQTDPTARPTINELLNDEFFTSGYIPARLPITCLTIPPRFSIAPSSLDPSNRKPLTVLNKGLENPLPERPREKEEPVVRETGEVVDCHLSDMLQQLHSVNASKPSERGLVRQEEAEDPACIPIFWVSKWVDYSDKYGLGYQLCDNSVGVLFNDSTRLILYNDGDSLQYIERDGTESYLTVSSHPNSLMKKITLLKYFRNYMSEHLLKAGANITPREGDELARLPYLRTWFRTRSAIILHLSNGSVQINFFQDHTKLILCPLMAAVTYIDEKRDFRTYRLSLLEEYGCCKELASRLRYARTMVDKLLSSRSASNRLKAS

Each compound was assayed against Serine/threonine-protein kinase PLK1 (Homo sapiens) (UniProt P53350) (assay: qHTS for Inhibitors of PLK1-PDB (polo-like kinase 1 - polo-box domain): Primary Screen). Details: Plk1 PBD binding of FITC phosphopeptide, fluorescence polarization.
Further: nearly all actives have a fitted effect of over 65% in size.
On the % scale 0 is the no-effect control and ±100 the full control effect; potency means the concentration at half of the fitted maximal effect.
Wherever max response, negative = inhibition is given: series mostly up to about 57 µM.

Structure (SMILES) | max response, negative = inhibition | Potency
CCOc1ccc(-c2nnc(-c3cccnc3)o2)cc1OCC | inactive: -0.717% | 
Cc1ccc(N2CCN(C(=O)c3cn(CC4CCCCC4)nn3)C(C)C2)cc1 (configuration not stated) | inactive: -3.22% | 
CC(Sc1nnc(C(F)(F)F)n1C)C(=O)Nc1ccc(S(N)(=O)=O)cc1 (configuration not stated) |  | active: 29.9 µM
O=C(N/N=C/c1cc(Cl)cc([N+](=O)[O-])c1O)NC12CC3CC(CC(C3)C1)C2 |  | inconclusive: 15 µM [inhibitor, partial curve]
C#CCN(C[C@H]1[C@H](OC(=O)Nc2c(C)noc2C)[C@H](OC(=O)Nc2c(C)noc2C)C[C@@H](C(=O)OC)[C@H]1C(=O)OC)S(=O)(=O)c1ccc(C)cc1 |  | inconclusive: 26.7 µM [inhibitor, partial curve]
CCn1nnnc1SCC(=O)N1CCCc2ccccc21 |  | active: 26.7 µM
Cc1ccc(NC(=O)CCn2nnc3ccccc32)c(C)c1 |  | inconclusive: 15 µM [inhibitor, partial curve]
O=C(N/N=C/c1cccnc1)c1cc(O)c(O)c(O)c1 |  | inconclusive: 26.7 µM [inhibitor, single point]
Nc1ccc2[nH]c(=S)[nH]c2c1 |  | inconclusive: 26.7 µM [inhibitor, single point]
Cc1onc(-c2ccccc2)c1C(=O)Nc1nnc(COc2ccc(Cl)cc2)s1 |  | active: 1.34 µM
O=C(CSc1ccsc1[N+](=O)[O-])N1CCN(c2ccc(Cl)cc2)CC1 |  | inconclusive: 23.8 µM [inhibitor, single point]
Cc1ccc(-n2cc(CN3CCNC(=O)CC3)c(-c3cccc(C)c3)n2)cc1 |  | active: 16.8 µM
COc1ccc(N2CCN(C(=O)CCNS(=O)(=O)c3ccc(C)cc3)CC2)cc1 | inactive: -0.49% | 
Cc1ccc(CN2CCSc3ccc(C(=O)N4CCOCC4)cc32)cc1 | inactive: -5.1% | 
O=C(CSc1nccn(-c2cccc(F)c2)c1=O)Nc1ccc(Cl)cc1F |  | inconclusive: 11.9 µM [inhibitor, partial curve]
CC(C)Cc1nnc(NC(=O)CN2C(=O)c3ccccc3C2=O)s1 |  | inconclusive: 23.8 µM [inhibitor, single point]
O=C(NC1CCC1)C1CCC(=O)N(Cc2ccc(Cl)cc2)C1 (configuration not stated) | inactive: 1.67% | 
OC(CCc1cccc(Cl)c1)c1cccs1 (configuration not stated) |  | active: 21.2 µM
CC(C)C1Nc2c(O)cc(Cl)c([N+](=O)[O-])c2C2C=CCC21 (configuration not stated) | inconclusive: -32.9% [inhibitor] | 
C=CCn1c(-c2ccc(OC)c(OC)c2)cs/c1=N\c1ccccn1 |  | inconclusive: 29.9 µM [inhibitor, partial curve]
CCCc1ccc(C2C3=C(CC(C)(C)CC3=O)NC3=C2C(=O)c2ccccc23)cc1 (configuration not stated) | inactive: -12.5% | 
CC(NCc1cccs1)c1ccccc1 (configuration not stated) |  | inconclusive: 4.23 µM [inhibitor, single point]
Cc1cc(C)c(C)c(SCC(=O)Nc2oc(C)c3c(C)n[nH]c(=O)c23)c1C |  | inconclusive: 29.9 µM [inhibitor, single point]
Cc1ccc(CCNS(=O)(=O)c2ccc(C)cc2)cc1 | inactive: -1.65% | 

Structure (SMILES) | max response, negative = inhibition | Potency
S=C(Nc1ccc2cn[nH]c2c1)Nc1ccc(Cl)cc1Cl |  | active: 15 µM
O=C(/C=C/c1c(F)cccc1Cl)c1ccc(F)cc1 |  | inconclusive: 26.7 µM [inhibitor, partial curve]
O=C(O)CC12CC3CC(C1)CC(n1cncn1)(C3)C2 |  | inconclusive: 16.8 µM [inhibitor, single point]
Cc1ccc(C([O-])=C(C(=S)NCc2ccccc2)[n+]2cccc(CO)c2)cc1[N+](=O)[O-] |  | inconclusive: 16.8 µM [inhibitor, partial curve]
S=c1[nH]nc(CCc2ccccc2)n1-c1ccc(Cl)cc1 |  | inconclusive: 29.9 µM [inhibitor, partial curve]
O=C(CSc1nc2scc(-c3ccccc3)c2c(=O)[nH]1)N1CCCCC1 | inactive: -16.2% | 
O=S(=O)(NC1CCCCC1N1CCC(O)CC1)c1ccc(Cl)cc1 (configuration not stated) | inactive: -6.48% | 
CCOc1cc(OCC)cc(C(=O)NCc2ccco2)c1 |  | inconclusive: 26.7 µM [inhibitor, partial curve]
Cc1ccc(S(=O)(=O)CCSc2cccc(C(=O)O)c2)cc1 |  | inconclusive: 10.6 µM [inhibitor, partial curve]
O=S(=O)(Nc1cccc(-c2cn3c(n2)SCC3)c1)c1ccccc1F |  | inconclusive: 21.2 µM [inhibitor, partial curve]
Cc1onc(-c2ccccc2)c1CNC(=O)Nc1ccc(F)cc1F |  | inconclusive: 5.32 µM [inhibitor, single point]
Cc1ccc(S(=O)OCC(=O)Nc2cc(Cl)ccc2N2CCOCC2)cc1 (configuration not stated) |  | active: 16.8 µM
Cc1cc2nc(-c3ccc(Cl)cc3)c(Cc3cccc(F)c3)n2c(C)c1Br | inactive: -18.5% | 
COC(=O)C(/C=N/O)NC(=O)c1ccccc1 (configuration not stated) |  | inconclusive: 21.2 µM [inhibitor, single point]
O=C(CSc1ccc(Br)c2cccc(Cl)c12)Nc1ccc(S(=O)(=O)Nc2nccs2)cc1 |  | inconclusive: 18.9 µM [inhibitor, partial curve]
O=c1n(CCCN2CCN(c3cccc(Cl)c3)CC2)nc2ccccn12 | inactive: 0.273% | 
CCc1ccc(OCCCC(=O)Nc2nnc(C3CCCO3)s2)cc1 (configuration not stated) | inactive: -0.149% | 
CC1=NNC(=O)/C1=C\c1cn(-c2ccccc2)nc1-c1ccccc1 |  | active: 5.97 µM
COc1ccc(-c2noc(CN(C(=O)c3ccc4c(c3)OCO4)C(C)C)n2)cc1 | inactive: 0.478% | 
CC(=O)Nc1ccc(NC(=S)NC(=O)/C=C/c2ccco2)cc1 |  | inconclusive: 10.6 µM [inhibitor, partial curve]
CN(Cc1cccc(F)c1)CC(O)COCc1ccccc1Cl (configuration not stated) | inactive: 6.66% | 
COc1cc(C(=O)Nc2ccc3c(c2)Cc2cc(NC(=O)c4cc(OC)c(OC)c(OC)c4)ccc2-3)cc(OC)c1OC |  | inconclusive: 21.2 µM [inhibitor, single point]
COc1cccc(/C=C(/C#N)c2ccc(Cl)cc2)c1OCc1cccc(C(=O)O)c1 |  | inconclusive: 26.7 µM [inhibitor, single point]
COc1ccc(N(CC(=O)N2CCc3ccccc3C2)S(=O)(=O)c2c(C)nn(C)c2C)cc1 |  | inconclusive: 29.9 µM [inhibitor, single point]

Structure (SMILES) | max response, negative = inhibition | Potency
COCCCNC1=C(C#N)C(=O)NC(c2cccc([N+](=O)[O-])c2)S1 (configuration not stated) |  | active: 18.9 µM
CC1(C(=O)O)CCN1C(=O)COc1ccc(Cl)cc1 (configuration not stated) | inactive: -2.61% | 
CS(=O)(=O)c1ccc(C(=O)Nc2ccc(N3CCCC3)cc2)c(Cl)c1 | inactive: -10.3% | 
Cc1cccc(CCNC(=O)CCS(=O)(=O)c2cc3c(cc2Cl)NC(=O)CO3)c1 | inconclusive: -13.2% [inhibitor] | 
CCOC(=O)C1CCN(S(=O)(=O)c2cccc(-c3cn4cccnc4n3)c2)CC1 |  | inconclusive: 37.7 µM [inhibitor, single point]
CCN(CC)c1ccc2c(-c3ccc(S(=O)(=O)O)cc3S(=O)(=O)[O-])c3ccc(=[N+](CC)CC)cc-3oc2c1 |  | active: 6.7 µM
O=C(CSc1ccccc1)NCc1ccccn1 |  | inconclusive: 37.7 µM [inhibitor, single point]
Brc1ccc(C2=CC(c3ccco3)n3ncnc3N2)cc1 (configuration not stated) |  | active: 23.8 µM
CN(C(=O)CN1C(=O)S/C(=C\c2ccc(Cl)cc2)C1=O)C1CCS(=O)(=O)C1 (configuration not stated) | inconclusive: -36% [inhibitor] | 
Cc1cccc(N2CCCC2=Nc2ccc(Br)cc2C#N)c1 | inconclusive: -33.3% [inhibitor] | 
Cc1c(CC(=O)O)c(=O)oc2c(C)c(OCc3ccc(F)cc3Cl)ccc12 |  | inconclusive: 26.7 µM [inhibitor, single point]
Cc1cccc(N2C(=O)C(O)=C(C(=O)c3cccs3)C2c2cccc(Oc3ccccc3)c2)n1 (configuration not stated) |  | inconclusive: 21.2 µM [inhibitor, single point]
COc1cc2cnc(-c3ccccc3)c(C(=O)c3ccc(OCc4ccccc4)cc3)c2cc1OC | inactive: -9.99% | 
Cc1ccc(Cc2c(-c3cccc(Cl)c3)nc3ccc(Br)cn23)cc1 |  | inconclusive: 37.7 µM [inhibitor, single point]
CC(=O)c1cccc(NC(=S)N2CCc3ccccc32)c1 |  | inconclusive: 23.8 µM [inhibitor, partial curve]
c1ccc(CCNc2nc(-c3ccccn3)nc3ccccc23)cc1 | inactive: -7.61% | 
C(CCN1CCOCC1)CN1CCOCC1 | inactive: -6.52% | 
O=S(=O)(Nc1nc2ccccc2nc1N1CCN(c2ccccc2F)CC1)c1ccc(Cl)cc1 |  | inconclusive: 21.2 µM [inhibitor, single point]
C[C@H]1CCCCO[C@H](CN(C)Cc2ccc(C(=O)O)cc2)[C@@H](C)CN([C@@H](C)CO)C(=O)c2cc(NS(=O)(=O)c3cn(C)cn3)ccc2O1 |  | inconclusive: 23.8 µM [inhibitor, single point]
CCC(=O)NC(=S)Nc1ccc(NC(=O)c2ccco2)c(Cl)c1 |  | active: 29.9 µM
COc1ccc(CNC(=O)CN2C(=O)c3ccccc3S2(=O)=O)cc1 |  | active: 26.7 µM
O=C(COc1ccccc1)OCC(=O)N1CCCc2ccccc21 | inactive: 4.78% | 
Cc1cc(=O)cc(C)n1-c1ccc(Br)cc1 | inconclusive: -31.8% [inhibitor] | 
Cc1ccc(-c2nn(-c3ccccc3)cc2CN(Cc2ccccc2)C(=O)CCC(=O)O)o1 |  | inconclusive: 18.9 µM [inhibitor, partial curve]

A draw from above in order of molecular weight, falling:
Structure (SMILES) | max response, negative = inhibition | Potency
COc1cc(C(=O)Nc2ccc3c(c2)Cc2cc(NC(=O)c4cc(OC)c(OC)c(OC)c4)ccc2-3)cc(OC)c1OC |  | inconclusive: 21.2 µM [inhibitor, single point]
CCN(CC)c1ccc2c(-c3ccc(S(=O)(=O)O)cc3S(=O)(=O)[O-])c3ccc(=[N+](CC)CC)cc-3oc2c1 |  | active: 6.7 µM
O=S(=O)(Nc1nc2ccccc2nc1N1CCN(c2ccccc2F)CC1)c1ccc(Cl)cc1 |  | inconclusive: 21.2 µM [inhibitor, single point]
COc1ccc(N(CC(=O)N2CCc3ccccc3C2)S(=O)(=O)c2c(C)nn(C)c2C)cc1 |  | inconclusive: 29.9 µM [inhibitor, single point]
Cc1ccc(-c2nn(-c3ccccc3)cc2CN(Cc2ccccc2)C(=O)CCC(=O)O)o1 |  | inconclusive: 18.9 µM [inhibitor, partial curve]
CCOC(=O)C1CCN(S(=O)(=O)c2cccc(-c3cn4cccnc4n3)c2)CC1 |  | inconclusive: 37.7 µM [inhibitor, single point]
Cc1ccc(Cc2c(-c3cccc(Cl)c3)nc3ccc(Br)cn23)cc1 |  | inconclusive: 37.7 µM [inhibitor, single point]
Cc1ccc(S(=O)OCC(=O)Nc2cc(Cl)ccc2N2CCOCC2)cc1 (configuration not stated) |  | active: 16.8 µM
O=C(CSc1nccn(-c2cccc(F)c2)c1=O)Nc1ccc(Cl)cc1F |  | inconclusive: 11.9 µM [inhibitor, partial curve]
O=C(CSc1ccsc1[N+](=O)[O-])N1CCN(c2ccc(Cl)cc2)CC1 |  | inconclusive: 23.8 µM [inhibitor, single point]
O=C(N/N=C/c1cc(Cl)cc([N+](=O)[O-])c1O)NC12CC3CC(CC(C3)C1)C2 |  | inconclusive: 15 µM [inhibitor, partial curve]
CS(=O)(=O)c1ccc(C(=O)Nc2ccc(N3CCCC3)cc2)c(Cl)c1 | inactive: -10.3% | 
O=S(=O)(NC1CCCCC1N1CCC(O)CC1)c1ccc(Cl)cc1 (configuration not stated) | inactive: -6.48% | 
Cc1cccc(N2CCCC2=Nc2ccc(Br)cc2C#N)c1 | inconclusive: -33.3% [inhibitor] | 
C=CCn1c(-c2ccc(OC)c(OC)c2)cs/c1=N\c1ccccn1 |  | inconclusive: 29.9 µM [inhibitor, partial curve]
CC(C)Cc1nnc(NC(=O)CN2C(=O)c3ccccc3C2=O)s1 |  | inconclusive: 23.8 µM [inhibitor, single point]
CC(C)C1Nc2c(O)cc(Cl)c([N+](=O)[O-])c2C2C=CCC21 (configuration not stated) | inconclusive: -32.9% [inhibitor] | 
Cc1cc(=O)cc(C)n1-c1ccc(Br)cc1 | inconclusive: -31.8% [inhibitor] | 
O=C(N/N=C/c1cccnc1)c1cc(O)c(O)c(O)c1 |  | inconclusive: 26.7 µM [inhibitor, single point]
COC(=O)C(/C=N/O)NC(=O)c1ccccc1 (configuration not stated) |  | inconclusive: 21.2 µM [inhibitor, single point]
C(CCN1CCOCC1)CN1CCOCC1 | inactive: -6.52% | 
